# From article PMC5245905
# Chains of the proteins cited; added tags and fusions are not shown.
# UniProt Q7Z2W4: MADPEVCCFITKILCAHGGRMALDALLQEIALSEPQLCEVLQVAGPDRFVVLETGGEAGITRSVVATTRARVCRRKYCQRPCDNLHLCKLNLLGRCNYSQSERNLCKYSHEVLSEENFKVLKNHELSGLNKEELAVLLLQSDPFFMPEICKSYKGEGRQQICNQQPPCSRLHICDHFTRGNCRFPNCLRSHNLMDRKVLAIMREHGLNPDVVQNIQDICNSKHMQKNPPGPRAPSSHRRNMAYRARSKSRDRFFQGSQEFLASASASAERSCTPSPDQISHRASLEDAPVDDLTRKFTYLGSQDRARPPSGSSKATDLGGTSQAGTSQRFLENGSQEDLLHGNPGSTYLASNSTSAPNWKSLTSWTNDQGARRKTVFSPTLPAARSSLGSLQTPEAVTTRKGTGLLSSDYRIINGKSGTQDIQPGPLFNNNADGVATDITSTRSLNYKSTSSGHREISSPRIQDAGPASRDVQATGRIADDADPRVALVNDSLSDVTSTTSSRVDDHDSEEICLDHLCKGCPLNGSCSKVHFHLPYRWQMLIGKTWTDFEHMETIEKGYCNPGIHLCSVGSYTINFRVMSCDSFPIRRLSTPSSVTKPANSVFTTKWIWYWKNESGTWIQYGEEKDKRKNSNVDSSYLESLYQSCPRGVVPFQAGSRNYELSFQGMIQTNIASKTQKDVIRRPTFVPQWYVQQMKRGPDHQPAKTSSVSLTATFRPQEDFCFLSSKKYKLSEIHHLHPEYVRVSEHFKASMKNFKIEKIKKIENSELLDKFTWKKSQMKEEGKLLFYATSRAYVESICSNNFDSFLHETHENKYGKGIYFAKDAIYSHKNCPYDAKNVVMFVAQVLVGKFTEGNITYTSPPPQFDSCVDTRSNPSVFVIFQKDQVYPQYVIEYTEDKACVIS
# UniProt Q14258: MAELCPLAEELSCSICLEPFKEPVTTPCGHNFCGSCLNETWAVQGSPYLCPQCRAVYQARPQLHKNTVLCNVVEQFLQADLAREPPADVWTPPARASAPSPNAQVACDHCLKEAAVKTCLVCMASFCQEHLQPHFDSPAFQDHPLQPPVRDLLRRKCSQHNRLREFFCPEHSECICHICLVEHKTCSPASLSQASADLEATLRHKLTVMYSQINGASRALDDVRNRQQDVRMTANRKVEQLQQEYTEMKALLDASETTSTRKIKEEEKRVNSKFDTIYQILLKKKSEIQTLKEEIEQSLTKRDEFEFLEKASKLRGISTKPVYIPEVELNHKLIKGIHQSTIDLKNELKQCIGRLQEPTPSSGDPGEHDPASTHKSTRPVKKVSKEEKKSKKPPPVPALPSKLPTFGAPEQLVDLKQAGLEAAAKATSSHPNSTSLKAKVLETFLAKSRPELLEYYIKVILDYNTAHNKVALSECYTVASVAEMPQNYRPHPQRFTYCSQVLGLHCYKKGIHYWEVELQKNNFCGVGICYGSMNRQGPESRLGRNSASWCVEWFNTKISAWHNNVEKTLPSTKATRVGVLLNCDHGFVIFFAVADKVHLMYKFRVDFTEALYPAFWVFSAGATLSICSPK
# No constants are given. Whether binding was seen depends on the method and setting. In cells and extracts the contact can be indirect. Some entries that bind do so weakly or less than the wild type.
# Molecular target: long isoform of human ZAP (ZAPL) (human) (UniProt Q7Z2W4)
# Test: co-IP; overexpressed proteins in ZC3HAV1-knockout 293T; 0.5% NP40 buffer (10 mM HEPES pH 7.5, 150 mM KCl, 3 mM MgCl2); IP of ZAP with anti-NZAP antibody crosslinked to Protein A Dynabeads, 4 C, 4 h; immunoblot
substance,measurement,value
V5-tagged full-length (FL) TRIM25 (from UniProt Q14258 1-630),binding,binds
